Holding throughout (assay): co-IP; SCAP lysates (IP lysis buffer, protease inhibitor cocktail); specific primary antibody (DLX5 or HOXC8) 4 h, protein A/G Sepharose overnight at 4 °C; beads washed three times with lysis buffer; Western blot; cells with over-expression or shRNA knock-down of DLX5 or HOXC8
Background: In western blotting, separated proteins are transferred to a membrane and probed.

By UniProt entry, the sequences of proteins in these tests, tags left out.
UniProt P31273: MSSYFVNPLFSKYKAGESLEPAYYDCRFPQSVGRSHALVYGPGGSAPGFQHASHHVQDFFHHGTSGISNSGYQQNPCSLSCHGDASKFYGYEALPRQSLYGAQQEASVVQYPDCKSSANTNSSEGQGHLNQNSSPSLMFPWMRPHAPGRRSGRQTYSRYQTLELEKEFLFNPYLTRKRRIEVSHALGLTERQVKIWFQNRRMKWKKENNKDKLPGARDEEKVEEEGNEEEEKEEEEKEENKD
UniProt P56178: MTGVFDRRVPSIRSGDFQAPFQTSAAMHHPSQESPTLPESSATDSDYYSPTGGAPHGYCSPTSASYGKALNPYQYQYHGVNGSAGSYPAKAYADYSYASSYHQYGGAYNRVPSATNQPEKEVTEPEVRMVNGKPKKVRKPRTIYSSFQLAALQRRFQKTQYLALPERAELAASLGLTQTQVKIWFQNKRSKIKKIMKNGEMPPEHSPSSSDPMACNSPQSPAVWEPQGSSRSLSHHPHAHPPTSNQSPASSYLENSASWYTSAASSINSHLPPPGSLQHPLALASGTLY

The target in test [1] is HOXC8 (Homeobox C8), over-expressed in SCAPs (human) (UniProt P31273).
Test [2] deals with DLX5 (Distal-less homeobox 5), endogenous in SCAPs (human (endogenous in SCAPs)) (UniProt P56178).
The target of test [3] is DLX5 (Distal-less homeobox 5), over-expressed in SCAPs (human) (UniProt P56178).

Results are given in words; binding and its absence hold for the method and conditions named. In cells and extracts the contact can be indirect. Some entries that bind do so weakly or less than the wild type.

As for “DLX5 (Distal-less homeobox 5), endogenous in SCAPs (from UniProt P56178 1-289)”, the binding entry in test [1] was “binds”.

In the case of “HOXC8 (Homeobox C8), endogenous in SCAPs (from UniProt P31273 1-242)”, the binding entry in test [2] and in test [3] was “binds” throughout.

For the origin of these results see article PMC7336658.
